From patent US20200025762A1, “NON-TARGET SITE RESISTANCE” (UNIVERSITY OF NEWCASTLE UPON TYNE, priority 2017, published 2020)

Tested on: HS black-grass proteome
Experiment: DiGE proteome of HS black-grass exposed to a wheat safener
Type: in vivo, Alopecurus myosuroides
Conditions: safener 30 mM watered 4 days before harvest

## CCCCCC(C)OC(=O)COc1ccc(Cl)c2cccnc12 (centres unmarked) [cloquintocet-mexyl]
leaves, 131 of 512 protein spots
  resolved polypeptides in leaves showing changes in abundance relative to controls: 25%
stem, 26 of 874 protein spots
  stem proteome showing changes in abundance relative to controls: 3%
